# Laboratory results as given in the supplement of paper PMC8728848.
# The list shows a part of the results.
# B1: Actd5 (Actinidia), P84527 (protein)
# chain: ISSCNGPCRDLNDCDGQLICIKGKCNDDPQVGTHICRGTTHSHQPGGCKPSGTLTCRGKSYPTYDCSPPVTSSTPAKLTNNDFSEGGDDGGPSECDESYHNNNERIVALSTGWYNGGSRCGKMIRITASNGKSVSAKVVDECDSRHGCDKEHAGQPPCRNNIVDGSNAVWSALGLDKNVGVVDITWSMA
# What was measured:
# Assay in all cases: glycan array binding signal (z-score within array); higher = stronger binding
# Settings in all cases: glycan notation: IUPAC condensed, linker removed
# Neu5Ac(a2-8)Neu5Ac = target: Neu5Ac(a2-8)Neu5Ac
# Outline: (§1)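 Glycan array data came from 3228 arrays in the Consortium for Functional Glycomics database, and only arrays with an available protein sequence were kept. Glycan names were put into IUPAC-condensed notation, and columns mapping to the same glycan were averaged. The binding signal is a within-array Z-score, averaged across arrays of one protein sequence run at different concentrations or buffers and across linkers. A negative Z-score can be read as non-binding.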
# [1] = target: Neu5Ac(a2-8)Neu5Ac(a2-3)Gal(b1-3)GalNAc(b1-4)[Neu5Ac(a2-3)]Gal(b1-4)Glc
# Outline: as §1
# [2] = target: Neu5Ac(a2-8)Neu5Ac(a2-3)Gal(b1-3)GalNAc(b1-4)[Neu5Ac(a2-8)Neu5Ac(a2-3)]Gal(b1-4)Glc
# Outline: as §1
# [3] = target: Neu5Ac(a2-8)Neu5Ac(a2-3)Gal(b1-4)Glc
# Outline: as §1
# [4] = target: Neu5Ac(a2-8)Neu5Ac(a2-3)Gal(b1-4)GlcNAc
# Outline: as §1
# [5] = target: Neu5Ac(a2-8)Neu5Ac(a2-3)[Gal(b1-3)GalNAc(b1-4)]Gal(b1-4)Glc
# Outline: as §1
# [6] = target: Neu5Ac(a2-8)Neu5Ac(a2-3)[GalNAc(b1-4)]Gal(b1-4)Glc
# Outline: as §1
# [7] = target: Neu5Ac(a2-8)Neu5Ac(a2-8)Neu5Ac
# Outline: as §1
# [8] = target: Neu5Ac(a2-8)Neu5Ac(a2-8)Neu5Ac(a2-3)Gal(b1-4)Glc
# Outline: as §1
# [9] = target: Neu5Ac(a2-8)Neu5Ac(a2-8)Neu5Ac(a2-3)[Gal(b1-3)GalNAc(b1-4)]Gal(b1-4)Glc
# Outline: as §1
# [10] = target: Neu5Ac(a2-8)Neu5Ac(a2-8)Neu5Ac(a2-3)[GalNAc(b1-4)]Gal(b1-4)Glc
# Outline: as §1
# [11] = target: Neu5Ac(a2-8)Neu5Ac(a2-8)Neu5Ac(a2-8)Neu5Ac(a2-3)[GalNAc(b1-4)]Gal(b1-4)Glc
# Outline: as §1
# [12] = target: Neu5Ac(a2-8)Neu5Gc(a2-3)Gal(b1-4)GlcNAc
# Outline: as §1
# [13] = target: Neu5Ac(b2-6)Gal(b1-4)GlcNAc
# Outline: as §1
# Neu5Ac(b2-6)GalNAc = target: Neu5Ac(b2-6)GalNAc
# Outline: as §1
# [14] = target: Neu5Ac9Ac(a2-3)Gal(b1-3)GlcNAc
# Outline: as §1
# [15] = target: Neu5Ac9Ac(a2-3)Gal(b1-4)GlcNAc
# Outline: as §1
# [16] = target: Neu5Ac9Ac(a2-6)Gal(b1-4)GlcNAc
# Outline: as §1
# [17] = target: Neu5Gc(a2-3)Gal(b1-3)GlcNAc
# Outline: as §1
# [18] = target: Neu5Gc(a2-3)Gal(b1-3)[Fuc(a1-4)]GlcNAc
# Outline: as §1
# Neu5Gc(a2-3)Gal(b1-4)Glc = target: Neu5Gc(a2-3)Gal(b1-4)Glc
# Outline: as §1
# [19] = target: Neu5Gc(a2-3)Gal(b1-4)GlcNAc
# Outline: as §1
# [20] = target: Neu5Gc(a2-3)Gal(b1-4)GlcNAc(b1-3)Gal(b1-4)GlcNAc(b1-2)Man(a1-3)[Neu5Gc(a2-3)Gal(b1-4)GlcNAc(b1-3)Gal(b1-4)GlcNAc(b1-2)Man(a1-6)]Man(b1-4)GlcNAc(b1-4)GlcNAc
# Outline: as §1
# [21] = target: Neu5Gc(a2-3)Gal(b1-4)[Fuc(a1-3)]GlcNAc
# Outline: as §1
# [22] = target: Neu5Gc(a2-6)Gal(b1-4)GlcNAc
# Outline: as §1
# Neu5Gc(a2-6)GalNAc = target: Neu5Gc(a2-6)GalNAc
# Outline: as §1
# [23] = target: Neu5Gc(a2-8)Neu5Ac(a2-3)Gal(b1-4)GlcNAc
# Outline: as §1
# [24] = target: Neu5Gc(a2-8)Neu5Gc(a2-3)Gal(b1-4)GlcNAc
# Outline: as §1
# [25] = target: Neu5Gc(a2-8)Neu5Gc(a2-3)Gal(b1-4)GlcNAc(b1-3)Gal(b1-4)GlcNAc
# Outline: as §1
# [26] = target: Neu5Gc(a2-8)Neu5Gc(a2-6)Gal(b1-4)GlcNAc
# Outline: as §1
# [27] = target: Neu5Gc(b2-6)Gal(b1-4)GlcNAc
# Outline: as §1
binder,measurement,setting,value
B1,glycan array binding signal (z-score),Neu5Ac(a2-8)Neu5Ac,-0.827
same,glycan array binding signal (z-score),[1],-0.272
same,glycan array binding signal (z-score),[2],0.006
same,glycan array binding signal (z-score),[3],-0.316
same,glycan array binding signal (z-score),[4],-1.25
same,glycan array binding signal (z-score),[5],-0.214
same,glycan array binding signal (z-score),[6],-0.363
same,glycan array binding signal (z-score),[7],0.095
same,glycan array binding signal (z-score),[8],-0.151
same,glycan array binding signal (z-score),[9],1.71
same,glycan array binding signal (z-score),[10],-0.179
same,glycan array binding signal (z-score),[11],-0.686
same,glycan array binding signal (z-score),[12],-1.45
same,glycan array binding signal (z-score),[13],-0.819
same,glycan array binding signal (z-score),Neu5Ac(b2-6)GalNAc,0.032
same,glycan array binding signal (z-score),[14],-1.57
same,glycan array binding signal (z-score),[15],2.81
same,glycan array binding signal (z-score),[16],-0.376
same,glycan array binding signal (z-score),[17],-0.413
same,glycan array binding signal (z-score),[18],-0.017
same,glycan array binding signal (z-score),Neu5Gc(a2-3)Gal(b1-4)Glc,0.046
same,glycan array binding signal (z-score),[19],-0.521
same,glycan array binding signal (z-score),[20],0.689
same,glycan array binding signal (z-score),[21],0.189
same,glycan array binding signal (z-score),[22],-0.297
same,glycan array binding signal (z-score),Neu5Gc(a2-6)GalNAc,-0.357
same,glycan array binding signal (z-score),[23],0.149
same,glycan array binding signal (z-score),[24],-0.998
same,glycan array binding signal (z-score),[25],-1.4
same,glycan array binding signal (z-score),[26],-0.989
same,glycan array binding signal (z-score),[27],-0.531

# Taken from the results shown (9 entries):
binder,measurement,setting,value
B1,glycan array binding signal (z-score),[16],-0.376
same,glycan array binding signal (z-score),[17],-0.413
same,glycan array binding signal (z-score),[18],-0.017
same,glycan array binding signal (z-score),Neu5Gc(a2-3)Gal(b1-4)Glc,0.046
same,glycan array binding signal (z-score),[19],-0.521
same,glycan array binding signal (z-score),[20],0.689
same,glycan array binding signal (z-score),[21],0.189
same,glycan array binding signal (z-score),[22],-0.297
same,glycan array binding signal (z-score),Neu5Gc(a2-6)GalNAc,-0.357
